Data reported in the supplement of paper PMC7661543.
The effect of the compound repeats well; differences between the knockouts mostly do not.

Test system: BT-20
Experiment: relative cell number vs DMSO control (72 h) (% of DMSO); higher = less growth inhibition (more cells)
Experimental: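 QMAP-Seq: a pool of 5 breast cancer cell lines (ZR-75-1, SKBR3, HCC-38, MDA-MB-231, BT-20), each carrying 12 doxycycline-inducible Cas9 sgRNA perturbations (11 knockouts plus non-targeting sgNT), was treated with compounds for 72 h at four 10-fold doses (10 nM-10 uM or 1 nM-1 uM range). Barcodes were amplified and sequenced, and cell number was interpolated from 293T spike-in standard curves. The result is expressed as % of the median of DMSO wells. Two biological replicates.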

OCCn1cc(-c2ccc3c(c2)CC/C3=N\O)c(-c2ccncc2)n1 [GDC0879]
Conditions | relative cell number
sgRNA knockout: sgATF3, 10 nM | 115
sgRNA knockout: sgATF3, 100 nM | 96.6
sgRNA knockout: sgATF3, 1000 nM | 103
sgRNA knockout: sgATF3, 10000 nM | 103
sgRNA knockout: sgATF4, 10 nM | 95.9
sgRNA knockout: sgATF4, 100 nM | 94.8
sgRNA knockout: sgATF4, 1000 nM | 122
sgRNA knockout: sgATF4, 10000 nM | 111
sgRNA knockout: sgATF6, 10 nM | 86.2
sgRNA knockout: sgATF6, 100 nM | 103
sgRNA knockout: sgATF6, 1000 nM | 114
sgRNA knockout: sgATF6, 10000 nM | 96.5
sgRNA knockout: sgATG7, 10 nM | 99.9
sgRNA knockout: sgATG7, 100 nM | 104
sgRNA knockout: sgATG7, 1000 nM | 102
sgRNA knockout: sgATG7, 10000 nM | 119
sgRNA knockout: sgERN1, 10 nM | 95.5
sgRNA knockout: sgERN1, 100 nM | 107
sgRNA knockout: sgERN1, 1000 nM | 113.4
sgRNA knockout: sgERN1, 10000 nM | 120
sgRNA knockout: sgHSF1, 10 nM | 103
sgRNA knockout: sgHSF1, 100 nM | 117
sgRNA knockout: sgHSF1, 1000 nM | 107
sgRNA knockout: sgHSF1, 10000 nM | 94.1
sgRNA knockout: sgHSF2, 10 nM | 111
sgRNA knockout: sgHSF2, 100 nM | 110.2
sgRNA knockout: sgHSF2, 1000 nM | 125.3
sgRNA knockout: sgHSF2, 10000 nM | 112
sgRNA knockout: sgKEAP1, 10 nM | 88
sgRNA knockout: sgKEAP1, 100 nM | 99.7
sgRNA knockout: sgKEAP1, 1000 nM | 112
sgRNA knockout: sgKEAP1, 10000 nM | 111
sgRNA knockout: sgNFE2L2, 10 nM | 111
sgRNA knockout: sgNFE2L2, 100 nM | 117
sgRNA knockout: sgNFE2L2, 1000 nM | 119
sgRNA knockout: sgNFE2L2, 10000 nM | 124
sgRNA knockout: sgSLC35F2, 10 nM | 85.2
sgRNA knockout: sgSLC35F2, 100 nM | 100
sgRNA knockout: sgSLC35F2, 1000 nM | 114
sgRNA knockout: sgSLC35F2, 10000 nM | 97.2
sgRNA knockout: sgXBP1, 10 nM | 90.1
sgRNA knockout: sgXBP1, 100 nM | 117
sgRNA knockout: sgXBP1, 1000 nM | 108
sgRNA knockout: sgXBP1, 10000 nM | 110

C[C@@H]1CN(CC(=O)Nc2ccc3c(c2)Cc2cccc(-c4cc(=O)cc(N5CCOCC5)o4)c2S3)C[C@H](C)O1
Conditions | relative cell number
sgRNA knockout: sgATF3, 10 nM | 89.4
sgRNA knockout: sgATF3, 100 nM | 102
sgRNA knockout: sgATF3, 1000 nM | 88.1
sgRNA knockout: sgATF3, 10000 nM | 53.3
sgRNA knockout: sgATF4, 10 nM | 94.6
sgRNA knockout: sgATF4, 100 nM | 84.954
sgRNA knockout: sgATF4, 1000 nM | 88.88
sgRNA knockout: sgATF4, 10000 nM | 55.6
sgRNA knockout: sgATF6, 10 nM | 84.6
sgRNA knockout: sgATF6, 100 nM | 101
sgRNA knockout: sgATF6, 1000 nM | 82.6
sgRNA knockout: sgATF6, 10000 nM | 52.6
sgRNA knockout: sgATG7, 10 nM | 91.5
sgRNA knockout: sgATG7, 100 nM | 98
sgRNA knockout: sgATG7, 1000 nM | 95.8
sgRNA knockout: sgATG7, 10000 nM | 49
sgRNA knockout: sgERN1, 10 nM | 96.3
sgRNA knockout: sgERN1, 100 nM | 110
sgRNA knockout: sgERN1, 1000 nM | 83.96
sgRNA knockout: sgERN1, 10000 nM | 58.6
sgRNA knockout: sgHSF1, 10 nM | 103
sgRNA knockout: sgHSF1, 100 nM | 87.8
sgRNA knockout: sgHSF1, 1000 nM | 87.7
sgRNA knockout: sgHSF1, 10000 nM | 58.7
sgRNA knockout: sgHSF2, 10 nM | 88.7
sgRNA knockout: sgHSF2, 100 nM | 81.9
sgRNA knockout: sgHSF2, 1000 nM | 101
sgRNA knockout: sgHSF2, 10000 nM | 50.6
sgRNA knockout: sgKEAP1, 10 nM | 94.8
sgRNA knockout: sgKEAP1, 100 nM | 98.6
sgRNA knockout: sgKEAP1, 1000 nM | 87.9
sgRNA knockout: sgKEAP1, 10000 nM | 57.9
sgRNA knockout: sgNFE2L2, 10 nM | 108
sgRNA knockout: sgNFE2L2, 100 nM | 92.5
sgRNA knockout: sgNFE2L2, 1000 nM | 102
sgRNA knockout: sgNFE2L2, 10000 nM | 52.6
sgRNA knockout: sgSLC35F2, 10 nM | 92.1
sgRNA knockout: sgSLC35F2, 100 nM | 114
sgRNA knockout: sgSLC35F2, 1000 nM | 94
sgRNA knockout: sgSLC35F2, 10000 nM | 68
sgRNA knockout: sgXBP1, 10 nM | 104
sgRNA knockout: sgXBP1, 100 nM | 95.13
sgRNA knockout: sgXBP1, 1000 nM | 93.2
sgRNA knockout: sgXBP1, 10000 nM | 68.8

Cc1cc2c(F)c(Oc3ncnn4cc(OC[C@@H](C)O)c(C)c34)ccc2[nH]1 [Brivanib]
Conditions | relative cell number
sgRNA knockout: sgATF3, 10 nM | 102
sgRNA knockout: sgATF3, 100 nM | 86
sgRNA knockout: sgATF3, 1000 nM | 108
sgRNA knockout: sgATF3, 10000 nM | 87.1
sgRNA knockout: sgATF4, 10 nM | 110
sgRNA knockout: sgATF4, 100 nM | 76.8
sgRNA knockout: sgATF4, 1000 nM | 98.5
sgRNA knockout: sgATF4, 10000 nM | 94.6
sgRNA knockout: sgATF6, 10 nM | 100
sgRNA knockout: sgATF6, 100 nM | 80.1
sgRNA knockout: sgATF6, 1000 nM | 98.3
sgRNA knockout: sgATF6, 10000 nM | 102
sgRNA knockout: sgATG7, 10 nM | 101
sgRNA knockout: sgATG7, 100 nM | 88.5
sgRNA knockout: sgATG7, 1000 nM | 122
sgRNA knockout: sgATG7, 10000 nM | 93
sgRNA knockout: sgERN1, 10 nM | 102
sgRNA knockout: sgERN1, 100 nM | 76.3
sgRNA knockout: sgERN1, 1000 nM | 93.7
sgRNA knockout: sgERN1, 10000 nM | 105
sgRNA knockout: sgHSF1, 10 nM | 112
sgRNA knockout: sgHSF1, 100 nM | 85.5
sgRNA knockout: sgHSF1, 1000 nM | 100
sgRNA knockout: sgHSF1, 10000 nM | 88.66
sgRNA knockout: sgHSF2, 10 nM | 106.5
sgRNA knockout: sgHSF2, 100 nM | 83
sgRNA knockout: sgHSF2, 1000 nM | 91.2
sgRNA knockout: sgHSF2, 10000 nM | 96.87
sgRNA knockout: sgKEAP1, 10 nM | 113
sgRNA knockout: sgKEAP1, 100 nM | 81.7
sgRNA knockout: sgKEAP1, 1000 nM | 107.1
sgRNA knockout: sgKEAP1, 10000 nM | 92.7
sgRNA knockout: sgNFE2L2, 10 nM | 118
sgRNA knockout: sgNFE2L2, 100 nM | 80.3
sgRNA knockout: sgNFE2L2, 1000 nM | 108
sgRNA knockout: sgNFE2L2, 10000 nM | 87
sgRNA knockout: sgSLC35F2, 10 nM | 99.2
sgRNA knockout: sgSLC35F2, 100 nM | 105
sgRNA knockout: sgSLC35F2, 1000 nM | 99.1
sgRNA knockout: sgSLC35F2, 10000 nM | 102
sgRNA knockout: sgXBP1, 10 nM | 108
sgRNA knockout: sgXBP1, 100 nM | 93.1
sgRNA knockout: sgXBP1, 1000 nM | 94.3
sgRNA knockout: sgXBP1, 10000 nM | 91.1

O=C(O)CC[C@H]1CC[C@@](c2cc(F)ccc2F)(S(=O)(=O)c2ccc(Cl)cc2)CC1 [MK0752]
Conditions | relative cell number
sgRNA knockout: sgATF3, 10 nM | 140
sgRNA knockout: sgATF3, 100 nM | 108
sgRNA knockout: sgATF3, 1000 nM | 106
sgRNA knockout: sgATF3, 10000 nM | 133
sgRNA knockout: sgATF4, 10 nM | 153
sgRNA knockout: sgATF4, 100 nM | 120
sgRNA knockout: sgATF4, 1000 nM | 125
sgRNA knockout: sgATF4, 10000 nM | 134
sgRNA knockout: sgATF6, 10 nM | 118
sgRNA knockout: sgATF6, 100 nM | 110
sgRNA knockout: sgATF6, 1000 nM | 121
sgRNA knockout: sgATF6, 10000 nM | 145
sgRNA knockout: sgATG7, 10 nM | 140
sgRNA knockout: sgATG7, 100 nM | 123
sgRNA knockout: sgATG7, 1000 nM | 132
sgRNA knockout: sgATG7, 10000 nM | 139
sgRNA knockout: sgERN1, 10 nM | 125
sgRNA knockout: sgERN1, 100 nM | 107
sgRNA knockout: sgERN1, 1000 nM | 120
sgRNA knockout: sgERN1, 10000 nM | 139
sgRNA knockout: sgHSF1, 10 nM | 120
sgRNA knockout: sgHSF1, 100 nM | 105
sgRNA knockout: sgHSF1, 1000 nM | 121
sgRNA knockout: sgHSF1, 10000 nM | 125
sgRNA knockout: sgHSF2, 10 nM | 135
sgRNA knockout: sgHSF2, 100 nM | 110
sgRNA knockout: sgHSF2, 1000 nM | 129
sgRNA knockout: sgHSF2, 10000 nM | 137
sgRNA knockout: sgKEAP1, 10 nM | 125
sgRNA knockout: sgKEAP1, 100 nM | 108.8
sgRNA knockout: sgKEAP1, 1000 nM | 107
sgRNA knockout: sgKEAP1, 10000 nM | 117
sgRNA knockout: sgNFE2L2, 10 nM | 162
sgRNA knockout: sgNFE2L2, 100 nM | 132
sgRNA knockout: sgNFE2L2, 1000 nM | 157
sgRNA knockout: sgNFE2L2, 10000 nM | 145.9
sgRNA knockout: sgSLC35F2, 10 nM | 158
sgRNA knockout: sgSLC35F2, 100 nM | 116
sgRNA knockout: sgSLC35F2, 1000 nM | 128
sgRNA knockout: sgSLC35F2, 10000 nM | 134
sgRNA knockout: sgXBP1, 10 nM | 144
sgRNA knockout: sgXBP1, 100 nM | 123
sgRNA knockout: sgXBP1, 1000 nM | 132
sgRNA knockout: sgXBP1, 10000 nM | 143
